Results as given in paper PMC10825120.

How the values were obtained:
Test in all cases: EMSA
[1] = target: T1, MBP-LjNIN (551-878) (Lotus japonicus) (UniProt Q9S7B1); conditions: EMSA: 0.25 µM FAM-DNA, 50 ng/µL poly(dI-dC), 10 mM Tris-HCl pH 7.5, 100 mM KCl, 100 mM NaCl, 1 mM DTT, 2.5% glycerol, 5 mM MgCl2, 25 °C 30 min, 10% polyacrylamide gel, recombinant protein, residues 551-878, protein details: MBP, label: FAM
T1 sequence (looked up): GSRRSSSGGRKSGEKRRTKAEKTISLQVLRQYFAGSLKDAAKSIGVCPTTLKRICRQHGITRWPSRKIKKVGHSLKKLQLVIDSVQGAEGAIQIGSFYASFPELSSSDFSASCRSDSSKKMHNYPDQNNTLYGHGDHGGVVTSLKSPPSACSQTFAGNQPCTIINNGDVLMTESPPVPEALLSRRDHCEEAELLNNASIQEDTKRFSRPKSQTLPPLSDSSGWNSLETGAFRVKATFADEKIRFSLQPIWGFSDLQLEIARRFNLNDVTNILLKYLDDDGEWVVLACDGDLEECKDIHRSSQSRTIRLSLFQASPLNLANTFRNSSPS

[2] = tested on: MBP-LjNLP1 (573-903) (Lotus japonicus); conditions: EMSA: 0.25 µM FAM-DNA, 50 ng/µL poly(dI-dC), 10 mM Tris-HCl pH 7.5, 100 mM KCl, 100 mM NaCl, 1 mM DTT, 2.5% glycerol, 5 mM MgCl2, 25 °C 30 min, 10% polyacrylamide gel, recombinant protein, protein details: MBP, label: FAM
[3] = tested on: MBP-LjNLP4 (564-976) (Lotus japonicus); conditions: EMSA: 0.25 µM FAM-DNA, 50 ng/µL poly(dI-dC), 10 mM Tris-HCl pH 7.5, 100 mM KCl, 100 mM NaCl, 1 mM DTT, 2.5% glycerol, 5 mM MgCl2, 25 °C 30 min, 10% polyacrylamide gel, recombinant protein, protein details: MBP, label: FAM

Sequence | binding result [1] | binding result ([2]; less binding than LjNIN) | binding result ([3]; less binding than LjNIN) | binding result ([1]; positive control) | binding result ([2]; positive control) | binding result ([3]; positive control)
CTTCTTCCCCTTTACTCTATTTGAAAAGTCATGATGGT (double strand) [NBS/NRE (LjIMA1pro)] | binds | binds more weakly | binds more weakly | – | – | –
CAAACACGACCCTTTGTCACAACCAAAGGTCCATTGTA (double strand) [NRE (LjNIR1pro)] | – | – | – | binds | binds | binds

Construct, isoform or probe ends are uncertain for at least one entry. For part of these data: The comparison behind a weaker result is the experiment's own reference, which may not be listed here. At least one verdict was read from the data and is not stated in words by the source. For part of these data: Tags and fusion partners may be left off the protein sequences shown.
